The source of these data is paper doi:10.1101/284166.

By UniProt entry, the sequences of proteins in these tests, tags left out. Where a name states a change or a piece, a line headed by the entry shows the natural chain unless it says otherwise. Residues count along the entry.
UniProt Q61768: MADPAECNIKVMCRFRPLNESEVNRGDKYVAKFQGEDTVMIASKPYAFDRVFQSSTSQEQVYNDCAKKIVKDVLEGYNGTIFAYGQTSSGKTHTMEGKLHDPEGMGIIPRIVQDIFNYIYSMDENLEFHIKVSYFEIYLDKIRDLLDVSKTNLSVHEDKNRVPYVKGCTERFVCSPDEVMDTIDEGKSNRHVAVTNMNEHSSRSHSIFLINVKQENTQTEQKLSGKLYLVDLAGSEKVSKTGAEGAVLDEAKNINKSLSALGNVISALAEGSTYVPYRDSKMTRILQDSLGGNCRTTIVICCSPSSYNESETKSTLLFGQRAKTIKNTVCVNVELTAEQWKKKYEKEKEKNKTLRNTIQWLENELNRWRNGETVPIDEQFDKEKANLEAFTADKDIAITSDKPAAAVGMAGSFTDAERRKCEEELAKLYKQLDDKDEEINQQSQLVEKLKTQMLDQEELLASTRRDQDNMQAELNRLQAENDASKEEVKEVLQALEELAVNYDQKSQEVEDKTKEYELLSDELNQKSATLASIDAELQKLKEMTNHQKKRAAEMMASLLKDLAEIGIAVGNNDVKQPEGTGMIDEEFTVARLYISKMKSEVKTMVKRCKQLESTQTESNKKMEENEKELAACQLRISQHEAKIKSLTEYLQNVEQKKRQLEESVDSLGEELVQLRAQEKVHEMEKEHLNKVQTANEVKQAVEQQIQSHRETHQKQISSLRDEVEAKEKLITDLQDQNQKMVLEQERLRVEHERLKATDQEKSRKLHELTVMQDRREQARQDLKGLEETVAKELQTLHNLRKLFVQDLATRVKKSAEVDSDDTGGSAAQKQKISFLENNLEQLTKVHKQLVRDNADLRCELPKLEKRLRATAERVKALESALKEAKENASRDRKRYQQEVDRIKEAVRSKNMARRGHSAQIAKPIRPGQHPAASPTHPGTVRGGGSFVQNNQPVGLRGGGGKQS
GST-Kif5b 891-963 (tail): residues 891-963 of Q61768
UniProt Q68FD5: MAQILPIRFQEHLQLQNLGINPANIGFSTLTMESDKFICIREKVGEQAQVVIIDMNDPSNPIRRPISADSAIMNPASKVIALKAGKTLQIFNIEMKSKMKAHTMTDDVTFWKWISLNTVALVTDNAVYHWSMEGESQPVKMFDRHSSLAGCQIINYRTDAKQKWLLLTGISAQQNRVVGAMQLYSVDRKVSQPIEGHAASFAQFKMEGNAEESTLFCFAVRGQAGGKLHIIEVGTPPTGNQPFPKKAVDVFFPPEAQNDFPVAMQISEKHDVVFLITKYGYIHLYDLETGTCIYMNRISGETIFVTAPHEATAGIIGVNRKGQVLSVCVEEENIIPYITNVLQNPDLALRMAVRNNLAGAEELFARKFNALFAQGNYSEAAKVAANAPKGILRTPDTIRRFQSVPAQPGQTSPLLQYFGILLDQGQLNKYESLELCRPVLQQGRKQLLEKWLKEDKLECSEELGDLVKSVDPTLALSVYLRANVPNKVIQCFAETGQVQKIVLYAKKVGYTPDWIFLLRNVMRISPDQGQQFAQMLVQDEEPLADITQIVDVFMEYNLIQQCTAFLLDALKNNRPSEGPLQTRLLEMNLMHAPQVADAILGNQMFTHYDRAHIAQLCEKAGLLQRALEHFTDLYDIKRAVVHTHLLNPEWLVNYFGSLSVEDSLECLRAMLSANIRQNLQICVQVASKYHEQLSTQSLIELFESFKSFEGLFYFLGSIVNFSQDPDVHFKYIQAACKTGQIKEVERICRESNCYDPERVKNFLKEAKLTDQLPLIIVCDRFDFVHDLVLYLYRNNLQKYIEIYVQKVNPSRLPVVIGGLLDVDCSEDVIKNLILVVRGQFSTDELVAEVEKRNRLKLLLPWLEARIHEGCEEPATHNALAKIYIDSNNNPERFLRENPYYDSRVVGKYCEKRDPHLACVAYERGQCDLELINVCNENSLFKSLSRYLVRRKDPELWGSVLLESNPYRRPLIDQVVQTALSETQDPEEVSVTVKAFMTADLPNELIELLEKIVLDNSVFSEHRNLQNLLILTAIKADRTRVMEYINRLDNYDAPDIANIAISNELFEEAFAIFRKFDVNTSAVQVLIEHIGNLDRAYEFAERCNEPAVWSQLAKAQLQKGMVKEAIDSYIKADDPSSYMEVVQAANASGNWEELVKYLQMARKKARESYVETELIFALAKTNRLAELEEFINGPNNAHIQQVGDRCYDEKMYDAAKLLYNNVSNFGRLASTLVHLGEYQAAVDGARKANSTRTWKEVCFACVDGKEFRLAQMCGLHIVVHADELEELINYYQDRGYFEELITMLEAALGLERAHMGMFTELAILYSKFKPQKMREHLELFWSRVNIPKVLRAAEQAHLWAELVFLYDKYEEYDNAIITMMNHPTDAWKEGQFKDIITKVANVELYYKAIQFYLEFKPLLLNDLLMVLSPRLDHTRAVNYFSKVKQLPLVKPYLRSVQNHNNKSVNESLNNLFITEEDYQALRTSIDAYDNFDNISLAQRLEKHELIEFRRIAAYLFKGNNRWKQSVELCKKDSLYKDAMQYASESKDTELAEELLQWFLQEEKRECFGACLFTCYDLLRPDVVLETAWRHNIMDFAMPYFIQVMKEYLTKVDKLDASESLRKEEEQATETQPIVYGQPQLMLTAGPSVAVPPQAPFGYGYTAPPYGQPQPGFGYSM

Results are given in words; binding and its absence hold for the method and conditions named. Binding seen in cells or lysates may run through a third protein. Some entries that bind do so weakly or less than the wild type.

Experiment [1] concerns the target GST-Kif5b 891-963 (tail) (UniProt Q61768). Nature of the experiment: pull-down.
The target of experiment [2] is clathrin heavy chain (CHC) (mouse (endogenous in mouse cortex and in Neuro2a)) (UniProt Q68FD5). Description: co-IP.
The target of experiment [3] is Kif5b (kinesin-1 heavy chain) (mouse (endogenous in mouse cortex and in Neuro2a)) (UniProt Q61768). Nature of the experiment: co-IP.

Regarding “flag-tagged CHC 1280-1429 (from UniProt Q68FD5 1280-1429) (domain or fragment)”, the binding entry in experiment [1] is reported as “binds”.

Take “TAT-conjugated cell-penetrating peptide corresponding to Kif5b 891-915 (from UniProt Q61768 891-915)”: in experiment [2], the binding entry is “binds”.

B1: syntaxin 6 (protein, UniProt Q9JKK1 1-255)
chain: MSMEDPFFVVKGEVQKAVNTAQGLFQRWTELLQGPSAATREEIDWTTNELRNNLRSIEWDLEDLDETISIVEANPRKFNLDATELSIRKAFITSTRQIVRDMKDQMSASSVQALAERKNRQALLGDSSSQSWNAGVADRYGRLDRELQLANSHFIEEQQAQQQLIVEQQDEQLELVSGSIGVLKNMSQRIGGELEEQAVMLDDFSHELESTQSRLDNVMKKLAKVSHMTSDRRQWCAIAILFAVLVVVLILFLVL
With B1, the binding entry in experiment [3] is reported as “no binding”.

B2: dynamin I (protein, UniProt P39053 1-867)
chain: MGNRGMEDLIPLVNRLQDAFSAIGQNADLDLPQIAVVGGQSAGKSSVLENFVGRDFLPRGSGIVTRRPLVLQLVNSTTEYAEFLHCKGKKFTDFEEVRLEIEAETDRVTGTNKGISPVPINLRVYSPHVLNLTLVDLPGMTKVPVGDQPPDIEFQIRDMLMQFVTKENCLILAVSPANSDLANSDALKIAKEVDPQGQRTIGVITKLDLMDEGTDARDVLENKLLPLRRGYIGVVNRSQKDIDGKKDITAALAAERKFFLSHPSYRHLADRMGTPYLQKVLNQQLTNHIRDTLPGLRNKLQSQLLSIEKEVDEYKNFRPDDPARKTKALLQMVQQFAVDFEKRIEGSGDQIDTYELSGGARINRIFHERFPFELVKMEFDEKELRREISYAIKNIHGIRTGLFTPDMAFETIVKKQVKKIREPCLKCVDMVISELISTVRQCTKKLQQYPRLREEMERIVTTHIREREGRTKEQVMLLIDIELAYMNTNHEDFIGFANAQQRSNQMNKKKTSGNQDEILVIRKGWLTINNIGIMKGGSKEYWFVLTAENLSWYKDDEEKEKKYMLSVDNLKLRDVEKGFMSSKHIFALFNTEQRNVYKDYRQLELACETQEEVDSWKASFLRAGVYPERVGDKEKASETEENGSDSFMHSMDPQLERQVETIRNLVDSYMAIVNKTVRDLMPKTIMHLMINNTKEFIFSELLANLYSCGDQNTLMEESAEQAQRRDEMLRMYHALKEALSIIGDINTTTVSTPMPPPVDDSWLQVQSVPAGRRSPTSSPTPQRRAPAVPPARPGSRGPAPGPPPAGSALGGAPPVPSRPGASPDPFGPPPQVPSRPNRAPPGVPSLGAWRLNSPQGKHENRAGKARL
As to B2, the binding result in experiment [3] is “no binding”.
